Assay results reported in patent US20130331442A1, “Combination Therapy for Cancer” (FINVECTOR VISION THERAPIES LTD, priority 2011, published 2013).
At least one compound was matched to its structure with a doubt left.

Test system: rat glioma model
Assay: survival rates in the rat glioma model
Assay type: in vivo
Details: Kaplan-Meier

Structure (SMILES): Cn1nnc2c(C(N)=O)ncn2c1=O [TMZ, Temozolomide]
- subjects survived at 50 days (survivors of total): 0 of 10
